Experimental data: the supplement of paper PMC3334620
Over roughly 33,000 sequences, “E-score (-0.5 to 0.5)” has its median near -0.0014; the highest 2% begin near 0.25. Some of the results follow.

Target: T1, Cad1 (UniProt P24813)
T1 sequence: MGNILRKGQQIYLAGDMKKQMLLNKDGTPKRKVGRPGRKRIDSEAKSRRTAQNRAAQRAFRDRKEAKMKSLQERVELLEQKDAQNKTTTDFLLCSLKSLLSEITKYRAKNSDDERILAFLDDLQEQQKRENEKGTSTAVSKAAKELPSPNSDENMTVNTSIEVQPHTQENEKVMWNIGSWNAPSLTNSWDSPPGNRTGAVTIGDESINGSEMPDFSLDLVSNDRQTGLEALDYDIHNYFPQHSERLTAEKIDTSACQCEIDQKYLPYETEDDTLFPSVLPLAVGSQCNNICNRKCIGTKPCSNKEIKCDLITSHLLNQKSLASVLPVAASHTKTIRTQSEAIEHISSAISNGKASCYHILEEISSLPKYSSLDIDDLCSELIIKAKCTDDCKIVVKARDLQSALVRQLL
Experiment: PBM E-score (8-mer binding enrichment) (E-score (-0.5 to 0.5)); higher = stronger / more preferred TF binding
Settings: protein concentration: 100 nM; construct: GST-full length
Procedure, shortened: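 Each ungapped eight-base word and its reverse complement, pooled, received an E-score from the Universal PBM Analysis Suite. Underlying scans, normalised with masliner, recorded fluorescent anti-GST bound to GST-tagged yeast transcription factors. These were applied at about 100-200 nM to universal all-10-mer Agilent arrays double-stranded by primer extension.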

Sequence | PBM E-score
ACACAGCT | 0.0403
CCAACAAA | -0.00011
TCATCACA | 0.123
AACGAATT | 0.149
GAAGATTA | 0.181
AAACCTAA | 0.0126
GAAGAACA | 0.121
ACAGGAAG | -0.142
ATATAACC | -0.0304
GCCGCACA | -0.13
AAACCTAG | -0.0612
GCAGCCCA | -0.163
CCCTTTGA | -0.154
ATGCAAGG | -0.248
AGTTTGGA | 0.08
AAAATATA | 0.208
GCCAGGAC | -0.0142
GGAAGAAA | -0.0518
AAGAAGGG | -0.144
TAGGGACA | -0.0126
AAAGCAAA | 0.16
CACCCATC | -0.0935
GACCGTGA | -0.0336
CTGTGGCC | -0.325
AGCTGTTC | -0.0751

Random excerpt: 6 entries already listed
Sequence | PBM E-score
ACAGGAAG | -0.142
ATGCAAGG | -0.248
AAAGCAAA | 0.16
GCCAGGAC | -0.0142
AAACCTAG | -0.0612
GGAAGAAA | -0.0518

(list continues)

Sequence | PBM E-score
AAACAGGT | -0.0926
CAATTAAG | 0.0377
AGCTACCA | 0.0307
GAGCCAAA | -0.131
TCAACTCA | 0.0746
AATCAGGT | 0.18
AATCTCCC | -0.277
AAGTTCAA | 0.146
GATTTGCC | 0.0432
CTATAAAG | -0.149
AAAGTTGG | -0.00742
AGCGTAAC | 0.0717
GACGAGTC | -0.157
CCGTTACG | -0.0396
CTTTCCCA | -0.124
ACGCTCTA | -0.242
CGCTGCGA | 0.14
TAATGATA | 0.251
GGTGCCAC | -0.0568
AAAATGAT | 0.234
AGCGCAAG | 0.1
CTCCGTCA | 0.00089
AGTGGGTC | -0.248
ACGTAACG | 0.0481
CTAAGTAA | 0.0983

Sequence | PBM E-score
AGGTTGCC | -0.143
AATCTGCT | 0.0612
AGGCACCT | -0.2
CCTGGCCC | -0.0403
CTCAATCA | 0.0838
AGCGTGCG | 0.108
CCATATAA | -0.0968
GAAGAGAC | -0.0449
AACAGCTA | -0.0873
CACAACCC | -0.0563
AATACGAA | 0.18
GTAGAAGA | -0.128
CATTTAGC | -0.143
CCGCCCTA | -0.00222
CACCGGGA | -0.192
AGTATACT | -0.0247
ATTAGAAA | 0.173
CACATAAG | 0.00562
GCAAAGGC | -0.222
GGAAGACC | -0.227
AACTGATT | -0.067
ACGCCGAT | 0.132
AGCCAACT | -0.117
GAGCGTAA | 0.0355
GCTTACCC | 0.034

Sequence | PBM E-score
ATATTTCG | 0.206
AAGTATGC | -0.0509
TCACTCAA | -0.00031
AAACGGGC | 0.0994
ATGCCGTC | -0.0686
GCTTAATA | 0.212
CATTCGAA | 0.0318
ATGGTCTG | 0.00029
GATGGGAC | 0.00072
GATGTAAC | -0.0181
ATTCGTTG | 0.258
AATTTGTC | 0.31
ATGCTCTA | -0.182
TATAAGAA | 0.0437
CGGGTGAG | -0.222
TCCGACAA | 0.0363
CCTGCCAC | -0.0993
TCAAAACA | 0.0475
CTTTTCGC | 0.21
ACTAGATG | 0.00154
CGGTGTCA | -0.106
GAATGAAA | 0.138
CTTATAAG | -0.047
ACCCGCTG | -0.0566
CCCCGGCG | -0.272

Sequence | PBM E-score
AACGGGTG | -0.023
CTCCGACC | -0.157
AACACTCC | -0.0547
AAAGCTCC | -0.101
ATCCGCAA | -0.0492
CTCTTGCC | -0.062
AACGTAGA | 0.0503
CAACTCCG | -0.113
AGCTAAGC | 0.0297
ATCAATCG | 0.136
AGGCACCC | -0.259
CCGGGCAC | -0.153
CAGCAACA | 0.186
CGATGGTC | -0.108
CATAATGA | 0.0454
GGGCCCGA | 0.0194
ATTCGGAG | -0.0536
CCTTGTAG | -0.177
ATCGACTG | 0.00902
TATTTACA | 0.111
CTCCCCCC | -0.406
AGCTCTTC | -0.0278
GAAGTCAC | -0.175
CTCTCAAG | 0.0798
ATTGTGCA | 0.137

Sequence | PBM E-score
CGGGAGCC | -0.225
CCTGTCCG | -0.0194
ACCCAAAG | -0.0585
GTGTAGCA | -0.132
CCTGCTTC | -0.179
CATATGCA | 0.0869
GGAAGGCC | -0.169
GTGCAAAC | -0.00691
TACGAAGA | -0.0587
AGCTTACT | 0.239
CGTCAACA | -0.023
AGCTTAGA | 0.135
AGGTGATA | -0.0762
CAAGAGTG | -0.0801
CACCCGGG | -0.116
CCAGAAAG | -0.0514
AAGGCAGC | -0.0388
ACATATTG | 0.0269
CGTTCCAG | -0.189
TACAGAGA | -0.179
AATGCCCA | -0.154
CCAGAGAA | -0.0192
GCAACTGC | 0.106
ACTTGGGG | -0.141
CAAAAAAC | 0.12

Sequence | PBM E-score
GACAAACC | 0.0702
ACAATAAG | 0.0684
ATCTCGGC | -0.0453
GCCCATTA | -0.118
ACAGTTCC | 0.125
AATGTACG | 0.0769
AAGACAAT | -0.138
CCTTCTAC | -0.377
AGTATAGA | -0.0118
GTGCTTCA | 0.122
CGCGGCCG | 0.0945
ACGCCCCA | -0.0692
CTTCTTGC | 0.129
CGGCGGAC | -0.0254
GGGAAGCA | -0.205
CGCCAGCC | -0.0239
ACACTGGC | -0.171
CCCCAGTA | -0.24
CAATTTAC | -0.053
GTCTTAAC | -0.0501
CCGGGAGA | -0.138
CCAAGAGC | -0.147

Exported tab-delimited: entries from further up.
Sequence	PBM E-score
TATAAGAA	0.0437
CGGGTGAG	-0.222
TCCGACAA	0.0363
